Laboratory results from the supplement of paper PMC12819154, “High-throughput peptide-centric local stability assay extends protein–ligand identification to membrane proteins, tissues and bacteria” (Nature Structural & Molecular Biology, 2025).
The list shows a part of the results. Most values lie at the level of the controls, where differences are scatter.

Amino acid sequences for entries named in this document (tags omitted). A change or cut given only in a name is not applied to a line headed by its entry.
UniProt P76112: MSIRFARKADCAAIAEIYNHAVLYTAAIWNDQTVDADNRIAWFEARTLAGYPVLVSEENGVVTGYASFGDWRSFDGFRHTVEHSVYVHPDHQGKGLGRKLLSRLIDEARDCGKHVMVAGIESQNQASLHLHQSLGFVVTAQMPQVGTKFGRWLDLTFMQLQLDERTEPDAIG
UniProt P77319: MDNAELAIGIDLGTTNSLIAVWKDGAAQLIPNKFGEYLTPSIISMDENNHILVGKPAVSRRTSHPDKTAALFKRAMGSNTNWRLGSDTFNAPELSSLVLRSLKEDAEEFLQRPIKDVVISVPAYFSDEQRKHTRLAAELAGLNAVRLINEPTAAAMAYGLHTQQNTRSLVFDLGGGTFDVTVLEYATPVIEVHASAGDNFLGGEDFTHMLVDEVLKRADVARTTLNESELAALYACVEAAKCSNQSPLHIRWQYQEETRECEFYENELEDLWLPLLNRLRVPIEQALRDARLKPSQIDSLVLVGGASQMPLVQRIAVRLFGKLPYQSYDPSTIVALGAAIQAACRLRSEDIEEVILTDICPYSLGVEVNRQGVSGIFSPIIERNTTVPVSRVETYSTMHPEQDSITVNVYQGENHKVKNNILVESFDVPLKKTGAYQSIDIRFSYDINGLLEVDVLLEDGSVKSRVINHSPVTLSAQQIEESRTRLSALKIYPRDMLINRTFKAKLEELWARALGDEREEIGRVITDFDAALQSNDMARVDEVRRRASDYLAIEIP
UniProt P76909: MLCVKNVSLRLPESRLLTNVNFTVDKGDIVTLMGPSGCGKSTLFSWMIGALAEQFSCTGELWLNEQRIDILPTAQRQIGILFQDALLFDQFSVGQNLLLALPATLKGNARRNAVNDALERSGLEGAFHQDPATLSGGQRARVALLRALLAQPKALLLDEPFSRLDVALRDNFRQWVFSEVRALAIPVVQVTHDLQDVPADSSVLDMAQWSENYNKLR
UniProt P76027: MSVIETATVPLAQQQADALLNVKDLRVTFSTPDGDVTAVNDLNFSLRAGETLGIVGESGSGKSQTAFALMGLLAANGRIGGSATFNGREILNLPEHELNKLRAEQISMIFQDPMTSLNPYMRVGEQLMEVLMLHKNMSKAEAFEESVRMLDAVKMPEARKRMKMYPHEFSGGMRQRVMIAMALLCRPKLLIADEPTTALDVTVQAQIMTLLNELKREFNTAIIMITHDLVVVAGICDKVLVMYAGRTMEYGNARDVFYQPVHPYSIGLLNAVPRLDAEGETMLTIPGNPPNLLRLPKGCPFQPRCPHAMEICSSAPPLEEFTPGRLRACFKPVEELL
UniProt P77564: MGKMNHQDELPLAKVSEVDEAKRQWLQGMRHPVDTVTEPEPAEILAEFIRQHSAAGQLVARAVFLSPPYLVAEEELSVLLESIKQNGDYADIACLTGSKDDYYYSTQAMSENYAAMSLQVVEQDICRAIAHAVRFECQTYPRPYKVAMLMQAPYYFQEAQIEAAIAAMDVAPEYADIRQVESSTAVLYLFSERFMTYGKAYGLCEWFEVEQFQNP
UniProt P76419: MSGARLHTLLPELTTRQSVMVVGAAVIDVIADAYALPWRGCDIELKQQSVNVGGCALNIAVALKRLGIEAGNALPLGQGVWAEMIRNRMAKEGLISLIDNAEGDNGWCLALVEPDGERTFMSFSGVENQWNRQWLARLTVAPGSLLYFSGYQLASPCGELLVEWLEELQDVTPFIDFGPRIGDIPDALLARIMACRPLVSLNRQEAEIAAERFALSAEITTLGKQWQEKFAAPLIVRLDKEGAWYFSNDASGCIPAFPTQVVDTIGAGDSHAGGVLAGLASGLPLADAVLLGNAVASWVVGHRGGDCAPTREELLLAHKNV
UniProt P76537: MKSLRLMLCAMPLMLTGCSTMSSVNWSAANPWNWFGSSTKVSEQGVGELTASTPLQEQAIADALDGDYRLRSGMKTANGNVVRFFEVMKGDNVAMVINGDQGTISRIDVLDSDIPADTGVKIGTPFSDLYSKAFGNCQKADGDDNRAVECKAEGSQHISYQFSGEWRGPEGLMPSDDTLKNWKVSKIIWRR
UniProt P76417: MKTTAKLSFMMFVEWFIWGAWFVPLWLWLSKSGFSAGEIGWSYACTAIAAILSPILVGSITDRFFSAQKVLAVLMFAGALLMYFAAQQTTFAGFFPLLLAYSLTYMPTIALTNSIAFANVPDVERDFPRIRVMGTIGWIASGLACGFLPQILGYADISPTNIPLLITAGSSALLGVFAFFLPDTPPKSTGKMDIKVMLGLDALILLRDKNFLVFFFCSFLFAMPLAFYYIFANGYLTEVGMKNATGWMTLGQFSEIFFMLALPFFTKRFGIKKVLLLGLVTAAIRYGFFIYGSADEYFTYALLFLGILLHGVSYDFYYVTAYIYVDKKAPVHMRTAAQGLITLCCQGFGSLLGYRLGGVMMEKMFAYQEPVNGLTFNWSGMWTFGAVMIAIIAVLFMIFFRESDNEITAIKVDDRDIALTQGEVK
UniProt P75958: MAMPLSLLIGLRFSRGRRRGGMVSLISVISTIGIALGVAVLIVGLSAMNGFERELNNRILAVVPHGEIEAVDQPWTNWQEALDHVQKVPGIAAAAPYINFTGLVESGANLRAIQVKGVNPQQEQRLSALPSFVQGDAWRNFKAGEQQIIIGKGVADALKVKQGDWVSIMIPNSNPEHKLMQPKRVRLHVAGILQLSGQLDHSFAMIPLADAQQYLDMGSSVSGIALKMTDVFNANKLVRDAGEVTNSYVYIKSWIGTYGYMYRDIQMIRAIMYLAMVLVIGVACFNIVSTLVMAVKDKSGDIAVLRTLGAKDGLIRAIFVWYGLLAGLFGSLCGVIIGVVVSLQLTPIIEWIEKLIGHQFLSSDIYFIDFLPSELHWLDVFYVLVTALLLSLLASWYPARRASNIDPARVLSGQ
UniProt P76034: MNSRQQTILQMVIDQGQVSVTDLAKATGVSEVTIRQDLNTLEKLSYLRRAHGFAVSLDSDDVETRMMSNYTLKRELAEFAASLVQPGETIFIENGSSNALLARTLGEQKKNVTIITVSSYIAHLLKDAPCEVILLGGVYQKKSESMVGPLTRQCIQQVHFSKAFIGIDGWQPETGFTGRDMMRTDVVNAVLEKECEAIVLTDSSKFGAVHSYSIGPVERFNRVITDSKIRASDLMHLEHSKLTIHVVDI
UniProt P77300: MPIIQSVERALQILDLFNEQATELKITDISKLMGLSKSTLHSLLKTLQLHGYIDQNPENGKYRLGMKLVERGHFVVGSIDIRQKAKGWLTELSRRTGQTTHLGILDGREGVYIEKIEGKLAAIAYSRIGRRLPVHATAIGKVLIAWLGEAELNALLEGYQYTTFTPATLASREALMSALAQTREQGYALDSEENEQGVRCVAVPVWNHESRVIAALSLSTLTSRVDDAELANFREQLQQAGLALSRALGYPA
UniProt P77554: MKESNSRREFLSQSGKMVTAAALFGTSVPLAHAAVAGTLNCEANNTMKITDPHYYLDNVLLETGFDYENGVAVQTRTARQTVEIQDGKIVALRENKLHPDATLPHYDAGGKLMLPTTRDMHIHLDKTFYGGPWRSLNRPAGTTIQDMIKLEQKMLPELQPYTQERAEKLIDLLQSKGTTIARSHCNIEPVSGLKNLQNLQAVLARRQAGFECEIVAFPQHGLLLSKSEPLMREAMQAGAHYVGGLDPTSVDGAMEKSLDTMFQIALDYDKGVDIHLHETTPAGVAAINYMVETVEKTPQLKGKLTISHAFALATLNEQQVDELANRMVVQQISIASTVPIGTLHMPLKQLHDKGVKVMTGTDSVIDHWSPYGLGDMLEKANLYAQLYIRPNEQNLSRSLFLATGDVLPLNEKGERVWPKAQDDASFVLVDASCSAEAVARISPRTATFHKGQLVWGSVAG
UniProt P76506: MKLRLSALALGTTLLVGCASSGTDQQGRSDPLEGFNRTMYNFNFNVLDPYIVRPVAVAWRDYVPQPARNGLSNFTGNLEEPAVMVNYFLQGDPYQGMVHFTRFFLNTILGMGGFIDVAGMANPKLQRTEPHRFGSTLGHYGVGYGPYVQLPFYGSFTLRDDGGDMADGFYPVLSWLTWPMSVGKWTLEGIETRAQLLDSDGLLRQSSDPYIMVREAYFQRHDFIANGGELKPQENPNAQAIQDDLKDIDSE
UniProt P77656: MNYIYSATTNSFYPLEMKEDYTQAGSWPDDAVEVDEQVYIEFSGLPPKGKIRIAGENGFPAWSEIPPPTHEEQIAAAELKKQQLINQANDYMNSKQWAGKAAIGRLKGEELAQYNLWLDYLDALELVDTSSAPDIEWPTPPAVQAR
UniProt P77307: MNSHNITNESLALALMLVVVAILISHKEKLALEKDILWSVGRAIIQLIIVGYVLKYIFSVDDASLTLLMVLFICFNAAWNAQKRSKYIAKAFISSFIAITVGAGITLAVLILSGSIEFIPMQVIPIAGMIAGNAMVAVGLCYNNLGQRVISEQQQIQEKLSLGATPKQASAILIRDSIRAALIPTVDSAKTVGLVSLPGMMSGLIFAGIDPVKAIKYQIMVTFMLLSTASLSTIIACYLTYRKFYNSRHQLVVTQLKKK
UniProt P75972: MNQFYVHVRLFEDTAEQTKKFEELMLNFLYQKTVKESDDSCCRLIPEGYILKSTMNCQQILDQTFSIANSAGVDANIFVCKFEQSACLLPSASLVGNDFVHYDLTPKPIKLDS
UniProt P76219: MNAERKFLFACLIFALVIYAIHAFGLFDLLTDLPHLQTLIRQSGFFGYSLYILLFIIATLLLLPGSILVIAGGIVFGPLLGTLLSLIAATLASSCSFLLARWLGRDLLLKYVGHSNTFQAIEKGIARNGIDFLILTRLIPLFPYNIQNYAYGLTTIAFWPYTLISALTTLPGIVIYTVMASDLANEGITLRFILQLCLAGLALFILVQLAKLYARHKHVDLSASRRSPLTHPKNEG
UniProt P76097: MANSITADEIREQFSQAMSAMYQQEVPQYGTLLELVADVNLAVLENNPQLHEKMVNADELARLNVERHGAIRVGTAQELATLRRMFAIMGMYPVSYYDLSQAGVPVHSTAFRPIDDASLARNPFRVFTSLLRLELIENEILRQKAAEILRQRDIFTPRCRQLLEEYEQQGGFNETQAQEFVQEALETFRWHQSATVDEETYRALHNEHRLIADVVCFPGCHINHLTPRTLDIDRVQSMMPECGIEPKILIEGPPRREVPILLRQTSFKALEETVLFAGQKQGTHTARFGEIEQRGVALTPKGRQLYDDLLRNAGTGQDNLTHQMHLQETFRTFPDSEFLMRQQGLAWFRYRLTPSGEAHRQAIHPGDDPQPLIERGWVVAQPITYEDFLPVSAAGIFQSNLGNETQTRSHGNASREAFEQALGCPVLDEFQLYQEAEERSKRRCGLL
UniProt P77615: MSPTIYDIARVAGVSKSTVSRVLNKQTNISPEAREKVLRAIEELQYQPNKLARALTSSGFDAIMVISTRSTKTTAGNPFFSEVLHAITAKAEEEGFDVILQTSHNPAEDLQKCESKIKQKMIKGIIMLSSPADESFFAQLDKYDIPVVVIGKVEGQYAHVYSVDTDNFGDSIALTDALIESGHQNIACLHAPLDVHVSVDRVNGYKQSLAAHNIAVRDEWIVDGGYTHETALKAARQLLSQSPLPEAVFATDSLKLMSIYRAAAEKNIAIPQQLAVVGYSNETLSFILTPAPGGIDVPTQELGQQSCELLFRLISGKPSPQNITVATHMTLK
UniProt P76052: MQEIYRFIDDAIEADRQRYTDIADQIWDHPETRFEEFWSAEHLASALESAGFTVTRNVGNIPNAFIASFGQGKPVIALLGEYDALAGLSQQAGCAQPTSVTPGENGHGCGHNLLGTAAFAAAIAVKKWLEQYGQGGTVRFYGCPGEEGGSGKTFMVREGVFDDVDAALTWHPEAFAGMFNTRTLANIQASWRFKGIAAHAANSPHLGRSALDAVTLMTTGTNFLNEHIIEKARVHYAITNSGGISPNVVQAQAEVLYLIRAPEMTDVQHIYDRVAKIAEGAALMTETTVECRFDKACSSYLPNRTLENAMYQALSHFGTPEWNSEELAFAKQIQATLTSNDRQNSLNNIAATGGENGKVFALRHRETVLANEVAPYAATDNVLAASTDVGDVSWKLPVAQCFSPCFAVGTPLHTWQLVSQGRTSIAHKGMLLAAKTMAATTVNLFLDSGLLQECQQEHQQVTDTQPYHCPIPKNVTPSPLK
UniProt P76541: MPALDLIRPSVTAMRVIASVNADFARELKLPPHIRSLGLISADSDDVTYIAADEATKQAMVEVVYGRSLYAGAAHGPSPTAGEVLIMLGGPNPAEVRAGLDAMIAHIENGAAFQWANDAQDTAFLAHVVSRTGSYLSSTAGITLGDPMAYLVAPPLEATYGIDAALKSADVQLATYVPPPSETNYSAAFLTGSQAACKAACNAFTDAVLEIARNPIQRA
UniProt P75966: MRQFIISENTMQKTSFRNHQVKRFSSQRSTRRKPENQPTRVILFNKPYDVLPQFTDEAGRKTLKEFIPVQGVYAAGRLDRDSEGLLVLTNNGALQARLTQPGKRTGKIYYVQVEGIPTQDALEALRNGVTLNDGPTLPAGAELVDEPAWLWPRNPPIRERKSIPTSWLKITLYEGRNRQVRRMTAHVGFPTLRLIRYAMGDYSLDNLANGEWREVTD

Compound: CC1(C)S[C@@H]2[C@H](NC(=O)[C@H](N)c3ccccc3)C(=O)N2[C@H]1C(=O)O [ampicillin]
Assay: log2 fold change of tryptic peptide abundance, ligand vs vehicle (limited proteolysis) (log2 ratio); higher = more trypsin-susceptible (destabilized)
Details: ligand concentration: 10 uM; sample: E. coli crude lysate

Row | Target | log2 fold change
1 | UniProt P76112 (peptide sequence: IAWFEAR, peptide start residue: 40) | -0.165
2 | UniProt P77319 (peptide sequence: LAAELAGLNAVR, peptide start residue: 135) | 0.457
3 | UniProt P76909 (peptide sequence: SGLEGAFHQDPATLSGGQR, peptide start residue: 121) | 0.0975
4 | UniProt P76403 (peptide sequence: KFYVVVNIAPHNAK, peptide start residue: 61) | 0.246
5 | UniProt P76027 (peptide sequence: VGEQLMEVLMLHK, peptide start residue: 123) | 0.095
6 | UniProt P77564 (peptide sequence: QWLQGMR, peptide start residue: 24) | -0.313
7 | UniProt P76176 (peptide sequence: DKLDQLSQK, peptide start residue: 265) | 0.152
8 | UniProt P76419 (peptide sequence: LHTLLPELTTR, peptide start residue: 6) | -0.347
9 | UniProt P77608 (peptide sequence: NNEEVSSGR, peptide start residue: 188) | 0.158
10 | UniProt P76537 (peptide sequence: AFGNCQKADGDDNR, peptide start residue: 133) | 0.202
11 | UniProt P77171 (peptide sequence: HLHTFVAVAQQGTLGR, peptide start residue: 15) | 0.121
12 | UniProt P76417 (peptide sequence: DIALTQGEVK, peptide start residue: 416) | 0.244
13 | UniProt P77285 (peptide sequence: TTIAEQASLQQK, peptide start residue: 32) | 0.454
14 | UniProt P76562 (peptide sequence: SALAGQLISR, peptide start residue: 206) | 0.322
15 | UniProt P75958 (peptide sequence: GVADALK, peptide start residue: 153) | 0.123
16 | UniProt P76034 (peptide sequence: IRASDLMHLEHSK, peptide start residue: 229) | 0.728

Row | Target | log2 fold change
17 | UniProt P77300 (peptide sequence: LAAIAYSR, peptide start residue: 120) | -0.219
18 | UniProt P76539 (peptide sequence: LGYEHADVLSLGK, peptide start residue: 121) | 0.116
19 | UniProt P77493 (peptide sequence: ALTEIFTQAK, peptide start residue: 152) | -0.256
20 | UniProt P77554 (peptide sequence: NLQNLQAVLAR, peptide start residue: 195) | -0.489
21 | UniProt P76506 (peptide sequence: AQLLDSDGLLR, peptide start residue: 194) | -0.118
22 | UniProt P77656 (peptide sequence: KQQLINQANDYMNSK, peptide start residue: 81) | -0.154
23 | UniProt P77307 (peptide sequence: VISEQQQIQEK, peptide start residue: 149) | 0.327
24 | UniProt P75972 (peptide sequence: LFEDTAEQTKK, peptide start residue: 10) | -0.648
25 | UniProt P76542 (peptide sequence: AIDALNMAAGFK, peptide start residue: 95) | 0.244
26 | UniProt P76219 (peptide sequence: RSPLTHPK, peptide start residue: 226) | 0.33
27 | UniProt P76097 (peptide sequence: VGTAQELATLRR, peptide start residue: 73) | -0.613
28 | UniProt P77615 (peptide sequence: AIEELQYQPNK, peptide start residue: 40) | -0.355
29 | UniProt P76052 (peptide sequence: FIDDAIEADR, peptide start residue: 7) | -0.0967
30 | UniProt P76541 (peptide sequence: VIASVNADFAR, peptide start residue: 16) | 0.0205
31 | UniProt P75966 (peptide sequence: RMTAHVGFPTLR, peptide start residue: 182) | 0.354
